Here are results for two substances from paper PMC10605370 (Biomolecules, 2023).

Protein sequences, listed by entry. Tags and fused reporters are not part of them. Lines headed by an entry give the natural chain unless they say otherwise; changes in a name come on top.
UniProt P14416: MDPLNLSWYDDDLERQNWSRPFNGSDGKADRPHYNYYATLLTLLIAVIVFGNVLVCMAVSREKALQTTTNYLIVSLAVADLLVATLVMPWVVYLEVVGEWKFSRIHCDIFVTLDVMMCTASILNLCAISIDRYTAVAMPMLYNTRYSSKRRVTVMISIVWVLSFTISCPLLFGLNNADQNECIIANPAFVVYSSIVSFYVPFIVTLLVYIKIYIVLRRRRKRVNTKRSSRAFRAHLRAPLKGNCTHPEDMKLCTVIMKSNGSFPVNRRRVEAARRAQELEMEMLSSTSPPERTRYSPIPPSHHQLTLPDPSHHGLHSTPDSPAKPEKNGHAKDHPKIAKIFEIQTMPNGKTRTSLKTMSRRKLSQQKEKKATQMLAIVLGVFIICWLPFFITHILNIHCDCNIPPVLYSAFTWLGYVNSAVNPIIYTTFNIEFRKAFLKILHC
UniProt P61169: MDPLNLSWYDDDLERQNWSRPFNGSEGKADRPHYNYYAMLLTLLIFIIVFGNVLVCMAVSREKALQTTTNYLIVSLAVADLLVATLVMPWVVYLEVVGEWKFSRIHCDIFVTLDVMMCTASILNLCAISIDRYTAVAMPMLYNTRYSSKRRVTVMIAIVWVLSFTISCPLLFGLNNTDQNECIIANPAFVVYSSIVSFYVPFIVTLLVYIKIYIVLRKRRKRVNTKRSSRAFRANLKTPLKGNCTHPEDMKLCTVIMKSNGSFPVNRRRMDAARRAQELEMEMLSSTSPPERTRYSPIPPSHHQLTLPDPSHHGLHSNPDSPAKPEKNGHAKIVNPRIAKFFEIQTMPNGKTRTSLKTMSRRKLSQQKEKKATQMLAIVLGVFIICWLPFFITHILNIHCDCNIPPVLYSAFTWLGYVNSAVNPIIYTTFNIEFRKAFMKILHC
UniProt P25098: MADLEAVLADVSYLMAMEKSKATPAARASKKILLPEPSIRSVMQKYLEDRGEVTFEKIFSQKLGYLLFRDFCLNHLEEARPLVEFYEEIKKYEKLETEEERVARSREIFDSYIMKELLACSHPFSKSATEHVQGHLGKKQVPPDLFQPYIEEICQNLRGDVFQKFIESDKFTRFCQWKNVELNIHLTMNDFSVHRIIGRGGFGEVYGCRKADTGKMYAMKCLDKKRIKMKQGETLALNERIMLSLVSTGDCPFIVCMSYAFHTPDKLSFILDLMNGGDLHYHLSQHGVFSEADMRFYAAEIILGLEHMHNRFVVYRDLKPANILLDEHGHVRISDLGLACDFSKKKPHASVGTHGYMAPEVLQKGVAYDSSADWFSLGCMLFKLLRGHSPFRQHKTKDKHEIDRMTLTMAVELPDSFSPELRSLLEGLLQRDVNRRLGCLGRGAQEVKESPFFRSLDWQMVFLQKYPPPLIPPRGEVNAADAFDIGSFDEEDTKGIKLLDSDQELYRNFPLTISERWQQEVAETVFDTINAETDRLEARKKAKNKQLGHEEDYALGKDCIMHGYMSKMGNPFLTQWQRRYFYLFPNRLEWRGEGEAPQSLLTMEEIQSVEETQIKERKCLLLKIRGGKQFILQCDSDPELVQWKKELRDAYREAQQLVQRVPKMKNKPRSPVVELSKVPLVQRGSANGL
UniProt P32121: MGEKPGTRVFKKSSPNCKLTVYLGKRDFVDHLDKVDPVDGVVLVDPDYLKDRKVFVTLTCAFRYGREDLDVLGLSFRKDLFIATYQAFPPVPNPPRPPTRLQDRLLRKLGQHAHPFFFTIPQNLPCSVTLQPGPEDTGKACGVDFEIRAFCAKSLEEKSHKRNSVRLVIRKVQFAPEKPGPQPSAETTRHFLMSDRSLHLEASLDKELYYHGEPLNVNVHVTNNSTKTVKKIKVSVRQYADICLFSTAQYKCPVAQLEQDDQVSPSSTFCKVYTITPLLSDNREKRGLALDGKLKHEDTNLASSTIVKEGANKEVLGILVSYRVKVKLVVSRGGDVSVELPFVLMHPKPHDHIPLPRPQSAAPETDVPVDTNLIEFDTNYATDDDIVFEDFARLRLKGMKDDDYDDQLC

In assay [1] the target is human D2 dopamine receptor, long isoform, fused to Rluc8 (D2R-Rluc8) (human) (UniProt P14416). Put plainly: FRET or BRET; GRK2 recruitment BRET in live HEK293 cells transfected with D2R-Rluc8 (donor) and GRK2-rGFP (acceptor), with or without compound 101; DPBS with 200 µM sodium metabisulphite, room temperature, 2 µM Prolume Purple; dopamine for 5 min. In general terms: In BRET a luciferase serves as donor, and the signal depends on an acceptor being close.

The target of assay [2] is rat D2 dopamine receptor, long isoform, wild type, fused to Rluc8 (WT D2R-Rluc8) (rat) (UniProt P61169). The assay is described as above.
Assay [3] shares this target. The assay can be described thus: FRET or BRET; β-arrestin2 recruitment BRET in live HEK293 cells (parental or GRK knock-out lines) transfected with D2R-Rluc8 (donor) and β-arrestin2-mVenus (acceptor), with or without GRK2, GRK3, GRK5, GRK6, K220R GRK2 or pcDNA, and with or without compound 101; DPBS with 200 µM sodium metabisulphite, room temperature, 5 µM coelenterazine h; dopamine for 10 min (20 min in Figure 7).

These are yes or no findings as the source states them, for the method shown. Binding seen in cells or lysates may run through a third protein. Some entries that bind do so weakly or less than the wild type.

As to “GRK2-rGFP (from UniProt P25098 1-689) (enzyme)”, the binding result in assay [1] and in assay [2] was “binds” in each case.
As for “β-arrestin2-mVenus (from UniProt P32121 1-409)”, the binding result in assay [3] was “binds”.
